Measured values reported in article PMC12337293.
These are yes or no findings as the source states them, for the method shown. Binding seen in cells or lysates may run through a third protein. Some entries that bind do so weakly or less than the wild type.

Amino acid sequences for entries named in this document (tags omitted). A change or cut given only in a name is not applied to a line headed by its entry. Chains listed by the source or under a name are the forms on record and can include a tag or linker.
BMAL1 p.(Ile201Thr) (O00327-2, form named): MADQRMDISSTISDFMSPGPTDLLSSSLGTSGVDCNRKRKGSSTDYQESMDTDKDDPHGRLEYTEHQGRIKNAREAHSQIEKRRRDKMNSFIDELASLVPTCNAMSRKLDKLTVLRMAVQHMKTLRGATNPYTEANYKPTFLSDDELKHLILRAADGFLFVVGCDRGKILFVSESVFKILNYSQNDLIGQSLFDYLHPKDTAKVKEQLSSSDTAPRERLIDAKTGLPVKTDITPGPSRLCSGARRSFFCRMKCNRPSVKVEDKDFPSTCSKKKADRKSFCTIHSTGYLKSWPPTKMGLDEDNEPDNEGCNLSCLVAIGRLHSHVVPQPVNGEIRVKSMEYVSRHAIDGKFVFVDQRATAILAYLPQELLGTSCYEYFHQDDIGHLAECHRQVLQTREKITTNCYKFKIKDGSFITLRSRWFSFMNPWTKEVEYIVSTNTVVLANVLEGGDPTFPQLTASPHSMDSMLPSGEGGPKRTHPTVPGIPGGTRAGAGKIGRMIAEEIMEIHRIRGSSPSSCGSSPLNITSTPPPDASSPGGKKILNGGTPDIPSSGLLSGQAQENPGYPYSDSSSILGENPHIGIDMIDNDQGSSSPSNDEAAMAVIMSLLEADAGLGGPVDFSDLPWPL
BMAL1 p.(Glu501Lys) (O00327-2, form named): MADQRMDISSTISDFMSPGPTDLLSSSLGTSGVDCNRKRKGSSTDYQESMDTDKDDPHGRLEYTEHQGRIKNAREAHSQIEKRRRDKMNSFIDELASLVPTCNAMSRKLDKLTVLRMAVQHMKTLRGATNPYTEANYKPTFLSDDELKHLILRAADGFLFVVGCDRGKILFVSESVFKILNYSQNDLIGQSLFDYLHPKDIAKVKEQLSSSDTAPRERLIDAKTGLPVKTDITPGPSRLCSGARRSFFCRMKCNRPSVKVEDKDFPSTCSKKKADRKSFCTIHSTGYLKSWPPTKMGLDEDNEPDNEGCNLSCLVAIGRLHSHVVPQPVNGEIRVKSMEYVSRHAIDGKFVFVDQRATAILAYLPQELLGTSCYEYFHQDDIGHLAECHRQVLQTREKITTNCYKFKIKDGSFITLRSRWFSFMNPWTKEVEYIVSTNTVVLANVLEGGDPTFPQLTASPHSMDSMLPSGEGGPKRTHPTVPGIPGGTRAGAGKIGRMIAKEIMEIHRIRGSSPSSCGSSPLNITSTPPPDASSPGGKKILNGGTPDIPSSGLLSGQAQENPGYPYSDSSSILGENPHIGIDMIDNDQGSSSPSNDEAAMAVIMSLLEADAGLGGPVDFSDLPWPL
BMAL1 p.(Gly68Arg) (O00327-2, form named): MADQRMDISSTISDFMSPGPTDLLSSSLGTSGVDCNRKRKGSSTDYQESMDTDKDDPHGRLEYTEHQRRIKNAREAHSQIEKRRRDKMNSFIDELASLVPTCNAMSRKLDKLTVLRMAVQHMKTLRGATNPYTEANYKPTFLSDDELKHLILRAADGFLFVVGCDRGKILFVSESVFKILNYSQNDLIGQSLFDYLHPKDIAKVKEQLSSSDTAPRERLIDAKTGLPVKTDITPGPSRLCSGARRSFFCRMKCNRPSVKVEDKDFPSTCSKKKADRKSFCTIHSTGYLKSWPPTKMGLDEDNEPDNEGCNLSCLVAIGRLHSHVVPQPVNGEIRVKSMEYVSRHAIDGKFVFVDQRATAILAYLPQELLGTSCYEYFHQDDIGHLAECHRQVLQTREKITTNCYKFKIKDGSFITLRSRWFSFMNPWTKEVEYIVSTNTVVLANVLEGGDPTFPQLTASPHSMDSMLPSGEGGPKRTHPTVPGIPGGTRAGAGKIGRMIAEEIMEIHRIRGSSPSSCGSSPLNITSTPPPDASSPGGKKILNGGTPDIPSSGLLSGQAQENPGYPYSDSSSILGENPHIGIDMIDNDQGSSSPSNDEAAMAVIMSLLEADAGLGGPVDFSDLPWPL

biological target: T1, CLOCK (human (endogenous in U2OS)) (UniProt O15516); test: co-IP; 1 µg rabbit anti-CLK IgG and Protein A DynaBeads with 500 µg total protein of U2OS lysate, 4 h at 4 °C; lysis buffer 10 mM Tris-Cl pH7.5, 100 mM NaCl, 5 mM EDTA, 1% Triton X-100, 0.05% SDS; 6 washes (150 mM NaCl, 0.4% Triton X-100, 0.05% SDS); immunoblot with mouse anti-BMAL1
T1 sequence: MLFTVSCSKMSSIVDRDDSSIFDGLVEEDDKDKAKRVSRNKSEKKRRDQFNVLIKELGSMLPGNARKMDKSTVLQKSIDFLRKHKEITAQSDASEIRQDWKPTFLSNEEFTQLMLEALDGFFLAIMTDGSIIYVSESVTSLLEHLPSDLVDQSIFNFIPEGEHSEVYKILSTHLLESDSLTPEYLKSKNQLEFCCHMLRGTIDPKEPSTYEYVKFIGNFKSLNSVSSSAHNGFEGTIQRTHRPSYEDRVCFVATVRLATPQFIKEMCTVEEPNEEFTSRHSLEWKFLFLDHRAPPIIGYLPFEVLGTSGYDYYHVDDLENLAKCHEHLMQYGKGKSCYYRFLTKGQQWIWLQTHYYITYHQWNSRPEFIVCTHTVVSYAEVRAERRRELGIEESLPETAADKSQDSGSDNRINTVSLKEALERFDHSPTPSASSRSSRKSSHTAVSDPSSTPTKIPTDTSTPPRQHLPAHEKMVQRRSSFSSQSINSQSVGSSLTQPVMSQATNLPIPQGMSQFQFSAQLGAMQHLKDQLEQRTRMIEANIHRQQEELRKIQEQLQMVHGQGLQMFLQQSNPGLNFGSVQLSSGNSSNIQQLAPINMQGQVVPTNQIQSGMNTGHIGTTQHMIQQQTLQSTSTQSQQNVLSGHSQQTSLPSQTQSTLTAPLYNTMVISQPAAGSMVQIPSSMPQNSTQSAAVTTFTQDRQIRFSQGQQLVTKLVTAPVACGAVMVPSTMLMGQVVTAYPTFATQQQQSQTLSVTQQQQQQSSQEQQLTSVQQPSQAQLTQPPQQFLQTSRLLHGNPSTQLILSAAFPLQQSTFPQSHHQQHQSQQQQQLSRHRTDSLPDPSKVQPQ

binding | Substance
binds | BMAL1 p.(Ile201Thr) (from UniProt O00327-2 1-626)
binds | BMAL1 (wild type) (from UniProt O00327-2 1-626)
binds | BMAL1 p.(Glu501Lys) (from UniProt O00327-2 1-626)
binds | BMAL1 p.(Gly68Arg) (from UniProt O00327-2 1-626)
